Drawing on publication PMC10617771, this text covers binding for two molecules.

Results are given in words; binding and its absence hold for the method and conditions named. Binding seen in cells or lysates may run through a third protein. Some entries that bind do so weakly or less than the wild type.

Experiment [1] addresses T1, DUSP8 (endogenous, human peripheral blood T cells) (human (endogenous in peripheral blood T cells)) (UniProt Q13202).
T1 sequence: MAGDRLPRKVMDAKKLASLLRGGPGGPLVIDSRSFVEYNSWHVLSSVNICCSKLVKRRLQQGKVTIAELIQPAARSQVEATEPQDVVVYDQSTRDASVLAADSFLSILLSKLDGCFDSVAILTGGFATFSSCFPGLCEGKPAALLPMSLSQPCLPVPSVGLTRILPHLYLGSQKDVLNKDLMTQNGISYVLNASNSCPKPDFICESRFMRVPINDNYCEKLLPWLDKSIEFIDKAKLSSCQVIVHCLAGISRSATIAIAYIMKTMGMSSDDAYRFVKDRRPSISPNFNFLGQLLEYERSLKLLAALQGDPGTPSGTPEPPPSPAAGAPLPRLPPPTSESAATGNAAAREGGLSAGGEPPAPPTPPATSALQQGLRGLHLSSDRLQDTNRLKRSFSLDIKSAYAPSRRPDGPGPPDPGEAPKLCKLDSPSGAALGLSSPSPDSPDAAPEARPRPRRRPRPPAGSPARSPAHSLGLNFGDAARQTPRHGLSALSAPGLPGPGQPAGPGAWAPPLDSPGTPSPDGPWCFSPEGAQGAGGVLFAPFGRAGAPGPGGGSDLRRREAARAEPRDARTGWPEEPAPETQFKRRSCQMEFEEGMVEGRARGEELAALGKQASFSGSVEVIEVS
As to the kind of experiment: proximity ligation; in situ PLA (Duolink in situ-red kit), methanol-fixed human peripheral blood T cells freshly isolated from people with asthma, people with atopic dermatitis and healthy controls; antibodies against DUSP8 and Pur-α, < 40 nm.

In experiment [2] the target is T2, DUSP8 (endogenous, murine primary T cells) (mouse (endogenous in murine primary T cells)) (UniProt O09112).
T2 sequence: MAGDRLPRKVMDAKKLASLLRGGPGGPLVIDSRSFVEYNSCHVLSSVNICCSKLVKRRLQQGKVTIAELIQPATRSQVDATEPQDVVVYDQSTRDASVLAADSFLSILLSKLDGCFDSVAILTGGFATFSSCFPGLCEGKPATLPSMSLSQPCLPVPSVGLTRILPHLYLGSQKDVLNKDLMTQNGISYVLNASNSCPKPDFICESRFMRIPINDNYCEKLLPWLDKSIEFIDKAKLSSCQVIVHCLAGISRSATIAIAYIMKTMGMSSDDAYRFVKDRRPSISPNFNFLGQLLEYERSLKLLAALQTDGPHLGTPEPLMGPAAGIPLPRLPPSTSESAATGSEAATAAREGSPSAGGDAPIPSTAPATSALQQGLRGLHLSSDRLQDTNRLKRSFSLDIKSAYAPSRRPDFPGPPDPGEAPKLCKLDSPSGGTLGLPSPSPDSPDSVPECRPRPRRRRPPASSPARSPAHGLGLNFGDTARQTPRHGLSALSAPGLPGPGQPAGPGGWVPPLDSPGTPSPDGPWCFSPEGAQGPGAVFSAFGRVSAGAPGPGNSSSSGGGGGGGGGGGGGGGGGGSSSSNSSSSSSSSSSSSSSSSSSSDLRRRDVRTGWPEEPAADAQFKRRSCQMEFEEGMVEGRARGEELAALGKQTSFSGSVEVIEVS
As to the kind of experiment: proximity ligation; in situ PLA (Duolink in situ-red kit), methanol-fixed murine primary T cells, antibodies against DUSP8 and Pur-α, < 40 nm; with and without TGF-β stimulation.

B1: Pur-α (endogenous, human peripheral blood T cells) (protein, UniProt Q00577 1-322)
chain: MADRDSGSEQGGAALGSGGSLGHPGSGSGSGGGGGGGGGGGGSGGGGGGAPGGLQHETQELASKRVDIQNKRFYLDVKQNAKGRFLKIAEVGAGGNKSRLTLSMSVAVEFRDYLGDFIEHYAQLGPSQPPDLAQAQDEPRRALKSEFLVRENRKYYMDLKENQRGRFLRIRQTVNRGPGLGSTQGQTIALPAQGLIEFRDALAKLIDDYGVEEEPAELPEGTSLTVDNKRFFFDVGSNKYGVFMRVSEVKPTYRNSITVPYKVWAKFGHTFCKYSEEMKKIQEKQREKRAACEQLHQQQQQQQEETAAATLLLQGEEEGEED
In the case of B1, the binding entry in experiment [1] is reported as “binds”.

B2: Pur-α (endogenous, murine primary T cells) (protein, UniProt P42669 1-321)
chain: MADRDSGSEQGGAALGSGGSLGHPGSGSGSGGGGGGGGGGGGSGGGGGAPGGLQHETQELASKRVDIQNKRFYLDVKQNAKGRFLKIAEVGAGGNKSRLTLSMSVAVEFRDYLGDFIEHYAQLGPSQPPDLAQAQDEPRRALKSEFLVRENRKYYMDLKENQRGRFLRIRQTVNRGPGLGSTQGQTIALPAQGLIEFRDALAKLIDDYGVEEEPAELPEGTSLTVDNKRFFFDVGSNKYGVFMRVSEVKPTYRNSITVPYKVWAKFGHTFCKYSEEMKKIQEKQREKRAACEQLHQQQQQQQEETTAATLLLQGEEEGEED
Take B2: the binding result in experiment [2] was “binds”.
